Binding data for one substance are collected here from publication PMC13534531.

Protein sequences, listed by entry. Tags and fused reporters are not part of them. Lines headed by an entry give the natural chain unless they say otherwise; changes in a name come on top.
UniProt P62814: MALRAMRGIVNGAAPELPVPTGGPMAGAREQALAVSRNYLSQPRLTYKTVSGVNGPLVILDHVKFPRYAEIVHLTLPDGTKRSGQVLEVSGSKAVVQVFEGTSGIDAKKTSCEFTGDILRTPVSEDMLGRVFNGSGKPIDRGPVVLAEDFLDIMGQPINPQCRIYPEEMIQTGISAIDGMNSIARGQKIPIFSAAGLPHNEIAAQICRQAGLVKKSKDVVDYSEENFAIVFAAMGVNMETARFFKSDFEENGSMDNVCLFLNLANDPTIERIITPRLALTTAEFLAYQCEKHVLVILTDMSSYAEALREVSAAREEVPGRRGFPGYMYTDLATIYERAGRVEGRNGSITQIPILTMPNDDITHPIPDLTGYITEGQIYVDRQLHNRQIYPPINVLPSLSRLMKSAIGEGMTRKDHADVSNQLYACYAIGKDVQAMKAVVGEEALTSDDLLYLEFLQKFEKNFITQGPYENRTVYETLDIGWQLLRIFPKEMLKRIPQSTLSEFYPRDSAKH
UniProt Q9JHF5: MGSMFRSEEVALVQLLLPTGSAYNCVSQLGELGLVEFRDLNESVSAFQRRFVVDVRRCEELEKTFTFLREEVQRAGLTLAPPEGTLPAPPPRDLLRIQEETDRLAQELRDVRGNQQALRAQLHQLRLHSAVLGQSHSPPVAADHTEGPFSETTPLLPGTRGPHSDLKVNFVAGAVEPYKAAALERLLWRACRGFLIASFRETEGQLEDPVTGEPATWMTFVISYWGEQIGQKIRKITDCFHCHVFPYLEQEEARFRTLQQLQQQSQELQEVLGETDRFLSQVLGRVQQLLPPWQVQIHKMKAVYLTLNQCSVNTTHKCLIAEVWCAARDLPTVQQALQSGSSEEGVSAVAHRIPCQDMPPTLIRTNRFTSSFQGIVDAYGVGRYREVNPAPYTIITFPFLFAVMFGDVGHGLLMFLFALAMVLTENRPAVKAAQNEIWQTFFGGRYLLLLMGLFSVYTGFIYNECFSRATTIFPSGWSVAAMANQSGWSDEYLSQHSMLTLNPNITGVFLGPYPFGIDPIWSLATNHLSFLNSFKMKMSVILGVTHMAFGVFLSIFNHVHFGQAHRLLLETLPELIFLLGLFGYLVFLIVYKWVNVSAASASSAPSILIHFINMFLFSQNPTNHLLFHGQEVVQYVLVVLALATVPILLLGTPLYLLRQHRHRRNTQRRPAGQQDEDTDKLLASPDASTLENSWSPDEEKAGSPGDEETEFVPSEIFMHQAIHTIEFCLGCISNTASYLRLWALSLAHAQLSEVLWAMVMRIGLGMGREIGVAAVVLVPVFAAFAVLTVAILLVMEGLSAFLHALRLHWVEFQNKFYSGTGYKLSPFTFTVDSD

This experiment addresses HA-V1B2 (HA-tagged V-ATPase V1 domain subunit B2, Atp6v1b2) (mouse) (UniProt P62814). Kind of experiment: co-IP; anti-HA magnetic beads, HA-V1B2 as bait; lysates of iCas9 MEFs expressing HA-V1B2 and Flag-Voa1, Flag-Voa2 or Flag-Voa3, control or Wdr7, Dmxl1 or Dmxl2 iKO; V1-Vo IP buffer (40 mM HEPES pH 7.4, 150 mM NaCl, 2 mM EDTA, 2.5 mM MgCl2, 5% glycerol, 1% Triton X-100), 2 h at 4 °C; immunoblotting.

These are yes or no findings as the source states them, for the method shown. Binding seen in cells or lysates may run through a third protein. Binding calls can cover weak binding; strength is not graded here.

As for “Flag-Voa3 (Flag-tagged V-ATPase Vo subunit a3, Atp6v0a3 / Tcirg1) (from UniProt Q9JHF5)”, the binding result is listed as “binds”.
